Data taken from patent US20190144549A1 (TILOS THERAPEUTICS, published 2019).
These are yes or no findings as the source states them, for the method shown. Some binding calls cover weakened binding; strength is not graded here.

Chains of the proteins cited; added tags and fusions are not shown. Lines headed by an entry give the natural chain unless they say otherwise; changes in a name come on top.
UniProt P01137: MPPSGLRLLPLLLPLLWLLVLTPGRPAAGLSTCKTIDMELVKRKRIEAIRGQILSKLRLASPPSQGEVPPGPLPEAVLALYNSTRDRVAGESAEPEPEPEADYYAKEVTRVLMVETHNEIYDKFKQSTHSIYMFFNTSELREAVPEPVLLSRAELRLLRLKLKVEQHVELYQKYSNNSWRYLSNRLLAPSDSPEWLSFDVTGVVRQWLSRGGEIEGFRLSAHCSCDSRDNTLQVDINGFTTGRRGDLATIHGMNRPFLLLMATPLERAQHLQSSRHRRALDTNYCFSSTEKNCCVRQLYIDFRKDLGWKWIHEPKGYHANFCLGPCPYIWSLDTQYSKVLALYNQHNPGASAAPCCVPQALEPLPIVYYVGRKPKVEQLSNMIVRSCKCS
UniProt P04202: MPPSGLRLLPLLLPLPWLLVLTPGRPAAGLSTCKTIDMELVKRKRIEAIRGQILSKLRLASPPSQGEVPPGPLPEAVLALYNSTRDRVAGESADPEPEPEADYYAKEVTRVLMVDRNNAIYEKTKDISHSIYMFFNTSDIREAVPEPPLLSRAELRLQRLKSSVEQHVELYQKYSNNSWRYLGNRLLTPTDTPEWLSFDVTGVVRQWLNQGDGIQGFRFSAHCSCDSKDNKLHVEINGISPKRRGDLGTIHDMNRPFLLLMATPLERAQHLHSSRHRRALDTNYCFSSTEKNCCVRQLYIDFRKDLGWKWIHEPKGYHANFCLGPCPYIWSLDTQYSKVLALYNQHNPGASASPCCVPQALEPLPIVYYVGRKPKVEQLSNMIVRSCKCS
UniProt Q86YC3: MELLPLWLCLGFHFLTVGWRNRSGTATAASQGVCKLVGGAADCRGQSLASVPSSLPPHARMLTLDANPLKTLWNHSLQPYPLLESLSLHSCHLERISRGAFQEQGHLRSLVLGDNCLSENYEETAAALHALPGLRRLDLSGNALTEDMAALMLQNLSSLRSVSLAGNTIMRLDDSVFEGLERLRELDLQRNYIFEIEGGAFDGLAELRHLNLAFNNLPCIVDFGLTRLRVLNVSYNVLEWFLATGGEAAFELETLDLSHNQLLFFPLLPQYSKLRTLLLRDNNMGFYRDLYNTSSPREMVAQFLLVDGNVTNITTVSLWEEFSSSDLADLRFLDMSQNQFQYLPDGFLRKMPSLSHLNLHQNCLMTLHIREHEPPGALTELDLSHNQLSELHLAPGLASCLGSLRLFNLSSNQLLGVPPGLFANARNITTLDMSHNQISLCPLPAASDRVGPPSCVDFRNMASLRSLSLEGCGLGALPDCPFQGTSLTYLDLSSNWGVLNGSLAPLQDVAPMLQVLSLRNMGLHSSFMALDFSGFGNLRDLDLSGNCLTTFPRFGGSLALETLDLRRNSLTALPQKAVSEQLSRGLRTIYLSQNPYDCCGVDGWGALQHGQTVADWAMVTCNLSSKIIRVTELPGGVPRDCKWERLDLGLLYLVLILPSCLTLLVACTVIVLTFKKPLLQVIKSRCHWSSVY

Columns and labels:
[1] = biological target: LAP (LAP-TGFβ1) expressed endogenously on human cells (human) (UniProt P01137); assay: summary table; binding to GARP+ human cells
[2] = biological target: LAP (LAP-TGFβ1) expressed endogenously on human cells (human) (UniProt P01137); assay: flow cytometry, activated human Tregs, biotinylated mAb
[3] = biological target: T1, human LAP-TGFβ1 on transfected cells (human, UniProt P01137 30-390); assay: summary table; binding to human TGFβ1 on transfected cells
[4] = biological target: LAP (LAP-TGFβ1) expressed endogenously on human cells (human) (UniProt P01137); assay: flow cytometry, activated human PBMC
[5] = biological target: LAP (LAP-TGFβ1) expressed endogenously on human cells (human) (UniProt P01137); assay: summary table; binding to GARPneg human cells
[6] = biological target: LAP (LAP-TGFβ1) expressed endogenously on human cells (human) (UniProt P01137); assay: flow cytometry, activated human PBMC, CD4+ T cells
[7] = biological target: LAP (LAP-TGFβ1) expressed endogenously on human cells (human) (UniProt P01137); assay: flow cytometry, U937 cells, Alexa 647 conjugated mAb
[8] = biological target: recombinant human LAP-TGFβ1-Fc fusion protein (human) (UniProt P01137); assay: summary table; ForteBio, human TGFβ1 in absence of anchor protein
[9] = biological target: murine TGFβ1 in absence of anchor protein (ForteBio) (murine) (UniProt P04202); assay: summary table; ForteBio, murine TGFβ1 in absence of anchor protein
[10] = biological target: LAP (LAP-TGFβ1) expressed endogenously on human cells (human) (UniProt P01137); assay: quantitative flow cytometry (antibody binding capacity), human platelets
[11] = biological target: LAP (LAP-TGFβ1) expressed endogenously on human cells (human) (UniProt P01137); assay: flow cytometry, CD61+ platelets in diluted human whole blood, conjugated mAb
[12] = biological target: LAP (LAP-TGFβ1) expressed endogenously on human cells (human) (UniProt P01137); assay: immunohistochemistry, frozen human hepatocellular carcinoma sections, 10 µg/ml
[13] = biological target: T1, human LAP-TGFβ1 on transfected cells; assay: flow cytometry, P3U1-hTGFβ1 cells
[14] = biological target: human LAP-TGFβ1 with K27C and Y75C mutations on HT1080 cells (human) (UniProt P01137); assay: flow cytometry, HT1080 cells overexpressing the variant
[15] = biological target: T1, human LAP-TGFβ1 on transfected cells; assay: flow cytometry, HT1080 cells overexpressing human LAP-TGFβ1
[16] = biological target: murine LAP-TGFβ1 on transfected cells (murine, UniProt P04202 30-390); assay: flow cytometry, HT1080 cells overexpressing murine LAP-TGFβ1
[17] = biological target: T1, human LAP-TGFβ1 on transfected cells; assay: flow cytometry, HT1080 cells, variant experiment (FIGS. 5, 6)
[18] = biological target: human LAP-TGFβ1 co-expressed with LRRC33 on P3U1 cells (human) (UniProt Q86YC3); assay: flow cytometry, P3U1 cells overexpressing LAP-TGFβ1 and LRRC33

| binding [1] | binding [2] | binding [3] | binding [4] | binding [5] | binding [6] | binding [7] | binding [8] | binding [9] | binding [10] | binding [11] | binding [12] | binding [13] | binding [14] | binding [15] | binding [16] | binding [17] | binding [18] | Binder |
| --- | --- | --- | --- | --- | --- | --- | --- | --- | --- | --- | --- | --- | --- | --- | --- | --- | --- | --- |
| binds | binds | binds | – | – | – | – | – | – | – | – | – | – | – | – | – | – | – | 7H4 (antibody, V domains shown) VH: DVQLQESGPGLVKPSQSLSLTCSVTGYSITSGYYWNWIRQFPGNKLEWMGYISYDGTNNYNPSLKNRISITRDTSKHQFFLKLNSVTTEDTATYYCARSFYNNYFDFWGQGTTLTVSS VL: DIQMTQSPSSLSASLGGKVTITCKASQDIDKYIAWYQHKPGKGPRLLIHYTSTLQPGIPSRFSGSGSGRDYSFNISNLEPEDIATYYCLQYDNLRTFGGGTKLEIK |
| binds | binds | binds | binds | binds | binds | binds | binds | binds | binds | binds | binds | – | – | – | – | – | – | 28G11 (antibody, V domains shown, Mouse hybridoma antibody; Used biotinylated or dye-conjugated in cell assays; also called 28G11_(hyb); 28G11_hyb) VH: EVKLVESGGGLVQPGGSLSLSCAASGFTFTDYYMSWVRQPPGKALEWLGFIRNKPNGYTTEYSASVKGRFTISRDNSQSILYLQMNVLRAEDSATYYCARYTGGGYFDYWGQGTTLTVSS VL: DIQMTQTTSSLSASLGDRLTISCRASQDISNYLNWYQQKPDGTVKLLIYYTSRLHSGVPSRFSGSGSGTDYSLTISNLEQADIATYFCQQGDTLPWTFGGGTKLEIK |
| – | – | – | – | – | – | – | – | – | – | – | – | binds | binds | binds | binds | binds | binds | 28G11_hIgG1 (antibody, V domains shown, 28G11 in human IgG1 format, by its name) VH: EVKLVESGGGLVQPGGSLSLSCAASGFTFTDYYMSWVRQPPGKALEWLGFIRNKPNGYTTEYSASVKGRFTISRDNSQSILYLQMNVLRAEDSATYYCARYTGGGYFDYWGQGTTLTVSS VL: DIQMTQTTSSLSASLGDRLTISCRASQDISNYLNWYQQKPDGTVKLLIYYTSRLHSGVPSRFSGSGSGTDYSLTISNLEQADIATYFCQQGDTLPWTFGGGTKLEIK |
